Experimental data published in PubChem BioAssay AID504834 (National Center for Advancing Translational Sciences (NCATS), 2011).
Out of some 320,000 compounds screened, about 22,000 (6.9%) were called active. This list was built around the results that the source calls inconclusive (neither active nor inactive); the mix of calls is not that of the screen. The call rests on the fitted dose curve; in most records, active means well fitted inhibition curve with a large enough effect; inconclusive means small, poorly fitted or top-dose-only effect, or another doubt; inactive means no such curve, though single readings can be large or run the other way. Potencies of inconclusive entries are doubtful fits and often do not repeat.

Assay: Primary qHTS for delayed death inhibitors of the malarial parasite plastid, 96 hour incubation
Conditions: P. falciparum luciferase reporter growth; series mostly up to 28.7 µM
In short: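 Infected RBCs, 2% Hct / 0.05% parasitemia final; luciferase-reporter P. falciparum; cpd 96 h, 37 C, 5% CO2; luciferase detection reagent; luminescence.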
Potency means the concentration at half of the fitted maximal effect.

SMILES | Potency
Cn1c(CN2CCN(c3ccccc3NS(C)(=O)=O)CC2)nc2ccccc21 | inconclusive: 10.4 µM [inhibitor, single point]
COc1cc(OC)cc(-c2nnc(NC(=O)Cc3ccc(F)cc3)o2)c1 | inconclusive: 18.5 µM [inhibitor, single point]
[N-]=[N+]=NC[C@H](Cc1ccccc1)N1CCN(Cc2ccccc2)CCC1=O | inconclusive: 1.17 µM [inhibitor, partial curve, poor fit]
O=C(CN1CCC(c2nc3ccccc3[nH]2)CC1)NCc1ccc2c(c1)OCO2 | inconclusive: 2.33 µM [inhibitor, single point]
N#CCc1nc(CSc2nc3ccccc3o2)cs1 | inconclusive: 9.28 µM [inhibitor, single point]
Cc1ccc2nc(SCC(=O)Nc3ccc4sc(C)nc4c3)c(C#N)cc2c1 | inconclusive: 2.62 µM [inhibitor, full curve, poor fit]
CCN1C(=O)[C@H]2[C@@H](c3ccc(-c4cccc(Cl)c4)c(OC)c3)N[C@@](CC(C)C)(C(=O)OC)[C@H]2C1=O | active: 0.233 µM
O=C(CN1c2ccccc2Sc2ccccc21)N/N=C/c1ccccc1 | inconclusive: 9.28 µM [inhibitor, single point]
Cc1cc(Cl)c(S(=O)(=O)NC2CCCC2)cc1OCC(=O)NC1CCCCC1 | inconclusive: 7.38 µM [inhibitor, partial curve, poor fit]
c1ccc(-c2nc(NCc3ccco3)c3ccccc3n2)cc1 | inconclusive: 13.1 µM [inhibitor, partial curve]
Cc1ccc(C(=O)Cn2c(=N)n(CCN3CCOCC3)c3ccccc32)cc1 | inconclusive: 5.22 µM [inhibitor, partial curve]
Cc1ccc(NS(=O)(=O)c2ccc3c(c2)oc(=O)n3C)c(C)c1 | inconclusive: 18.5 µM [inhibitor, single point]
Cc1ccc(OCC(=O)NC2CCCCCC2)cc1C | active: 10.4 µM
O=C(COC(=O)c1ccncc1)Nc1ccccc1 | inactive
Cc1ccc(CS(=O)Cc2ccc(C(=O)NCc3ccccc3)o2)cc1 (stereo not drawn) | inconclusive: 18.5 µM [inhibitor, single point]
O=C(Nc1ccc(-c2nc3ccccc3o2)cc1)c1ccc(N2C(=O)C3C4C=CC(C4)C3C2=O)cc1 (stereo not drawn) | active: 1.85 µM
COc1ccc([N+](=O)[O-])cc1NC(=O)CSc1ccc2ccccc2c1 | inconclusive: 20.8 µM [inhibitor, single point]
O=C(Cc1cccc(C(F)(F)F)c1)N1CCN(CC(=O)N2CCCC2)CC1 | inconclusive: 18.5 µM [inhibitor, single point]
O=C(Nc1ccc(F)cc1)Nc1ccccc1NS(=O)(=O)c1cccs1 | inactive
N#Cc1c(-c2ccncc2)c2c([nH]c1=S)CCCC2 | inconclusive: 18.5 µM [inhibitor, single point]
CCSc1nsc(NC(=O)Nc2cccc(OC)c2)n1 | inconclusive: 18.5 µM [inhibitor, single point]
Cc1ccc(NS(=O)(=O)N2CCOCC2)cc1Cl | inconclusive: 18.5 µM [inhibitor, partial curve, poor fit]

As entered above:
COc1ccc([N+](=O)[O-])cc1NC(=O)CSc1ccc2ccccc2c1 – Potency: inconclusive: 20.8 µM [inhibitor, single point]
Cc1ccc(CS(=O)Cc2ccc(C(=O)NCc3ccccc3)o2)cc1 (stereo not drawn) – Potency: inconclusive: 18.5 µM [inhibitor, single point]

Continued:

SMILES | Potency
CCN(CC)c1c(-c2ccccc2)c2cc(C)ccc2[nH]c1=O | inconclusive: 0.415 µM [inhibitor, partial curve, poor fit]
CC1CC(C)CN(S(=O)(=O)c2ccc3c(c2)CC(=O)N3)C1 (stereo not drawn) | inconclusive: 4.65 µM [inhibitor, partial curve]
CN(C)c1cccc(C(=O)N2CCCC(CCC(=O)NCc3ccccc3F)C2)c1 (stereo not drawn) | inconclusive: 18.5 µM [inhibitor, single point]
O=S(=O)(c1cccs1)N1CCN(Cc2cccc(F)c2)CC1 | inactive
C/C(CC(=O)NCc1ccco1)=N\NC(=O)Cc1ccc(-c2ccccc2)cc1 | inconclusive: 10.4 µM [inhibitor, single point]
COc1cnc(-c2ccccn2)nc1Oc1cccc(C(F)(F)F)c1 | active: 1.65 µM
Cc1cc2cc(CNC(=O)c3cccs3)ccc2[nH]1 | inactive
O=C(CSc1ccc(-c2cccnc2)nn1)Nc1ccccc1C(F)(F)F | active: 10.4 µM
N#C/C(=C\c1ccc(-c2ccccc2[N+](=O)[O-])o1)C(=O)N1CCOCC1 | inconclusive: 4.15 µM [inhibitor, single point]
Cc1ccc(OCC(=O)Nc2ccc3c(c2)nc(CCN2CCC(C)CC2)n3C)cc1 | inconclusive: 11.7 µM [inhibitor, single point]
CN(C)C1CCN(C(=O)c2cccc(OC3CCN(S(=O)(=O)N(C)C)CC3)c2)C1 (stereo not drawn) | inconclusive: 18.5 µM [inhibitor, single point]
COc1ccc(C2(C(=O)N3CCCC3)CCOCC2)cc1OC | inactive
O=C(Nc1cccn(Cc2ccccc2)c1=O)NC1CCCCC1 | inconclusive: 0.0522 µM [inhibitor, full curve, poor fit]
CC(=O)Nc1ccc(NC(=S)NC(=O)c2cc3ccccc3o2)cc1 | inactive
O/N=C1/C2C3C(Br)C4C5CC(C1C53)C24 (stereo not drawn) | inactive
COc1ccccc1NC(=O)CCc1c(C)nc2c(-c3ccc(F)cc3)c(C)nn2c1C | inconclusive: 5.86 µM [inhibitor, partial curve]
CCCCCCSc1ccc(-c2nc3ccc(C)cn3c2NC2CCCCC2)cc1 | active: 13.1 µM
CC1(C)Cc2c(sc3nnn(Cc4ccc(Cl)cc4)c(=O)c23)CO1 | inconclusive: 7.38 µM [inhibitor, partial curve, poor fit]
CCN(CC(=O)Nc1ccccc1C(F)(F)F)C(=O)c1cc2c(s1)CCCCC2 | inconclusive: 5.22 µM [inhibitor, partial curve, poor fit]
CCc1ccc(C(=O)COC(=O)CNC(=O)c2ccc(N3C(=O)c4ccccc4C3=O)cc2)cc1 | active: 14.7 µM
O=C(COc1coc(CN2CCc3ccccc3C2)cc1=O)Nc1ccc(F)cc1F | inconclusive: 11.7 µM [inhibitor, single point]
